From paper PMC10556141
The exact form of at least one protein or probe is not confirmed. For some assays here: Weaker means in comparison with the reference protein, sequence or condition of that experiment. For some assays here: At least one verdict was read from the data and is not stated in words by the source.

The chains behind the UniProt entries cited, without tags or fusion partners. Where a name states a change or a piece, a line headed by the entry shows the natural chain unless it says otherwise.
UniProt P06778: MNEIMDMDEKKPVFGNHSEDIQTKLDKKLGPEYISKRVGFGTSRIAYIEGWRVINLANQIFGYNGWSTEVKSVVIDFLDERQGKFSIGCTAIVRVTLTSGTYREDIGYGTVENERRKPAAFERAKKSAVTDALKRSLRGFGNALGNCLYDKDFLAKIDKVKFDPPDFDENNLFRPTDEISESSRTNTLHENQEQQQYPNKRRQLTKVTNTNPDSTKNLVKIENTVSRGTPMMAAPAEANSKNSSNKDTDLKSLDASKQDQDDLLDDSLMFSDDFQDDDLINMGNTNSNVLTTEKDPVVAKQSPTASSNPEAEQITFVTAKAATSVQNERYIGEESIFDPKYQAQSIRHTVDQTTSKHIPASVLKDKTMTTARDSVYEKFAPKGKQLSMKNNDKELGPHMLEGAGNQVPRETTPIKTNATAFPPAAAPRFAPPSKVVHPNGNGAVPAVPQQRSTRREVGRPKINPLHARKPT

Tests used:
[1] = target: Rad52 (Saccharomyces cerevisiae) (UniProt P06778); test: tryptophan quenching; conditions: more than (dT)45 needed for maximal quenching; AUC: 30 mM HEPES pH 7.8, 100 mM KCl, 10% glycerol, 1 mM TCEP; recombinant protein; residues 1-471; protein details: purified via chitin-binding (CBD) tag, DTT elution; single-stranded DNA
[2] = target: Rad52 (Saccharomyces cerevisiae) (UniProt P06778); test: FRET; conditions: Anisotropy/FRET: 50 mM Tris-acetate pH 7.5, 50 mM KCl, 5 mM MgCl2, 10% glycerol, 1 mM DTT, 0.2 mg/mL BSA, 23 C; recombinant protein; residues 1-471; protein details: purified via chitin-binding (CBD) tag, DTT elution; label: 5'-Cy5, 3'-Cy3; single-stranded DNA
[3] = system: Rad52 + Rad52ΔN; test: tryptophan quenching; conditions: Rad52 premixed with Rad52ΔN, second phase reduced; AUC: 30 mM HEPES pH 7.8, 100 mM KCl, 10% glycerol, 1 mM TCEP; recombinant protein; single-stranded DNA
[4] = system: Rad52ΔC + Rad52ΔN; test: tryptophan quenching; conditions: premixed, initial binding then sharp loss; AUC: 30 mM HEPES pH 7.8, 100 mM KCl, 10% glycerol, 1 mM TCEP; recombinant protein; single-stranded DNA

Does TTTTTTTTTTTTTTTTTTTT [(dT)20] bind [1]?
Result: binds more weakly

Does TTTTTTTTTTTTTTTTTTTTTTTTTTTTTT [(dT)30] bind [1]?
Result: binds more weakly

Does “TTTTTTTTTTTTTTTTTTTTTTTTTTTTTTTTTTTTTTTTTTTTTTTTTTTTTTTTTTTT [Cy5-(dT)60-Cy3]” bind [2]?
Result: binds

Does “TTTTTTTTTTTTTTTTTTTTTTTTTTTTTTTTTTTTTTTTTTTTTTTTTTTTTTTTTTTTTTTTTTTTTTTTTTTTTTTTTTTT [(dT)84]” bind [3]?
Result: binds more weakly

Does “TTTTTTTTTTTTTTTTTTTTTTTTTTTTTTTTTTTTTTTTTTTTTTTTTTTTTTTTTTTTTTTTTTTTTTTTTTTTTTTTTTTT [(dT)84]” bind [4]?
Result: binds more weakly
